Laboratory results: PubChem BioAssay AID504786 (Drosophila RNAi Screening Center, 2011)

Assay: 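Positive regulators of HIF-driven reporter output in Drosophila cells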 (primary screen)
Cells: Drosophila S2 cells with a stable HIF luciferase reporter
Reagent: long dsRNA against Drosophila genes, about 0.2 µg dsRNA per well of a 384-well plate
Time to read-out: three days of knock-down, then 20 h of DFO before reading
Treatment: desferrioxamine (DFO) at 100 µM, an iron chelator that mimics hypoxia, for 20 h
Read-out: 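HIF reporter luminescence in cells given 100 µM DFO for 20 h, using the mouse ldh-a hypoxia-response element, scored as per-plate z-scores; higher means greater loss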
Direction: z-score: higher = stronger loss of HIF reporter signal
The screen tested about 21,000 reagents; below is a random part of those with a known target gene and a result. 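Primary screen; positive scores mean lost reporter signal, so the sign may be inverted from the usual convention.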 The numbers tell different reagents against one gene apart.

| Target gene | reagent no. | z-score, replicate 1 | z-score, replicate 2 |
| --- | --- | --- | --- |
| Taf1 | 1 | 1.5 | 1.6 |
| CG6044 | 1 | -0.5 | -0.2 |
| tok | 1 | -0.2 | -0.5 |
| Ccp84Aa | 1 | -0.4 | -0.3 |
| CNPYb | 1 | -0.2 | -0.3 |
| gny | 1 | -0.2 | -0.6 |
| pea | 1 | 3.2 | 2.4 |
| E(var)3-9 | 1 | -0.2 | 0.9 |
| Aladin | 1 | -0.4 | -0.6 |
| Nin | 1 | -0.2 | -0.2 |
| sima | 1 | 5.8 | 7 |
| wech | 1 | 0 | -0.1 |
| Ufd1 | 1 | -0.1 | 0.4 |
| TpnC25D | 1 | -0.2 | -0.5 |
| obst-J | 1 | -0.3 | -0.5 |

Copied from the listing (2 entries):
| Target gene | reagent no. | z-score, replicate 1 | z-score, replicate 2 |
| --- | --- | --- | --- |
| CNPYb | 1 | -0.2 | -0.3 |
| gny | 1 | -0.2 | -0.6 |

Next results follow.
| Target gene | reagent no. | z-score, replicate 1 | z-score, replicate 2 |
| --- | --- | --- | --- |
| 18w | 1 | -0.2 | -0.4 |
| CG14120 | 1 | -0.2 | 0 |
| CG9525 | 1 | -0.3 | -0.1 |
| PpY-55A | 1 | 0.1 | 0.8 |
| IKKbeta | 1 | -0.2 | -0.1 |
| CheA46a | 1 | -0.2 | -0.1 |
| Oatp58Db | 1 | -0.2 | -0.3 |
| CG14441 | 1 | -0.2 | -0.1 |
| pon | 1 | -0.4 | -0.6 |
| CG12362 | 1 | -0.3 | 0 |
| CG13324 | 1 | 0.5 | 0.9 |
| cmet | 1 | -0.3 | -0.1 |
| RhoGAP15B | 1 | -0.2 | -0.3 |
| RhoGAP15B | 2 | -0.2 | -0.2 |
| CG12947 | 1 | -0.2 | 2 |
| gkt | 1 | -0.3 | -0.1 |
| CG30099 | 1 | -0.4 | -0.5 |
| CG2233 | 1 | -0.4 | -0.1 |
| rho-7 | 1 | -0.5 | -0.5 |
